Measured values published in paper PMC12003009.
No constants are given. Whether binding was seen depends on the method and setting. In cells and extracts the contact can be indirect. Binding can be weak; no strength is given.

Columns and labels:
[1] = molecular target: Flag-Bcl3 (B cell leukemia/lymphoma 3); test: co-IP; Huh7 cells and 293T cells transfected with Flag-Bcl3 or Nrf2 plasmid, lysed in NP40 buffer; Flag M2 beads or antibody with protein A/G Sepharose beads, 2 hours at room temperature or overnight at 4 °C; 5 washes with NP40 buffer; Western blotting
[2] = molecular target: Nrf2 (nuclear factor erythroid 2 like 2), overexpressed from plasmid; test: as above

Binder | binding [1] | binding [2]
endogenous Nrf2 (nuclear factor erythroid 2 like 2) of Huh7 / HEK293T cells (protein, UniProt Q16236 1-605) MMDLELPPPGLPSQQDMDLIDILWRQDIDLGVSREVFDFSQRRKEYELEKQKKLEKERQEQLQKEQEKAFFAQLQLDEETGEFLPIQPAQHIQSETSGSANYSQVAHIPKSDALYFDDCMQLLAQTFPFVDDNEVSSATFQSLVPDIPGHIESPVFIATNQAQSPETSVAQVAPVDLDGMQQDIEQVWEELLSIPELQCLNIENDKLVETTMVPSPEAKLTEVDNYHFYSSIPSMEKEVGNCSPHFLNAFEDSFSSILSTEDPNQLTVNSLNSDATVNTDFGDEFYSAFIAEPSISNSMPSPATLSHSLSELLNGPIDVSDLSLCKAFNQNHPESTAEFNDSDSGISLNTSPSVASPEHSVESSSYGDTLLGLSDSEVEELDSAPGSVKQNGPKTPVHSSGDMVQPLSPSQGQSTHVHDAQCENTPEKELPVSPGHRKTPFTKDKHSSRLEAHLTRDELRAKALHIPFPVEKIINLPVVDFNEMMSKEQFNEAQLALIRDIRRRGKNKVAAQNCRKRKLENIVELEQDLDHLKDEKEKLLKEKGENDKSLHLLKKQLSTLYLEVFSMLRDEDGKPYSPSEYSLQQTRDGNVFLVPKSKKPDVKKN | binds | 
endogenous Bcl3 (B cell leukemia/lymphoma 3) of Huh7 / HEK293T cells (protein, UniProt P20749 1-454) MPRCPAGAMDEGPVDLRTRPKAAGLPGAALPLRKRPLRAPSPEPAAPRGAAGLVVPLDPLRGGCDLPAVPGPPHGLARPEALYYPGALLPLYPTRAMGSPFPLVNLPTPLYPMMCPMEHPLSADIAMATRADEDGDTPLHIAVVQGNLPAVHRLVNLFQQGGRELDIYNNLRQTPLHLAVITTLPSVVRLLVTAGASPMALDRHGQTAAHLACEHRSPTCLRALLDSAAPGTLDLEARNYDGLTALHVAVNTECQETVQLLLERGADIDAVDIKSGRSPLIHAVENNSLSMVQLLLQHGANVNAQMYSGSSALHSASGRGLLPLVRTLVRSGADSSLKNCHNDTPLMVARSRRVIDILRGKATRPASTSQPDPSPDRSANTSPESSSRLSSNGLLSASPSSSPSQSPPRDPPGFPMAPPNFFLPSPSPPAFLPFAGVLRGPGRPVPPSPAPGGS |  | binds
